Results of single-concentration screens

A: 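Growth of Mycobacterium tuberculosis over 3 days (7H9 medium with glucose and tyloxapol); the read-out is not stated. Concentration: 50 µM. Higher reads as more growth inhibition (inferred: compounds with an IC50 in retests scored well above the rest). Of about 69,000 compounds tested this way, about 760 (1.1%) reached 50% or more in at least one test.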
B: 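Whole-cell growth test on Mycobacterium tuberculosis, read after 4 days in a medium based on cholesterol and the lipid DPPC; the read-out is not stated. Tested at 50 µM. Higher reads as more growth inhibition (inferred: compounds with an IC50 in retests scored well above the rest). Size under these conditions: about 69,000 compounds, about 370 of them at 50% or above in at least one test.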

Each number is a percent effect as filed.
How 0% and 100% were set is not recorded. Most values in the screen are low, and negative values occur.
This is an unselected part of the compounds tested.
Two or more numbers in one place are separate tests of the same structure; such repeats can differ widely.

structure	A	B
CC(C)Cn1cncc1CNC1CCSC1 (configuration not stated)	-21.61 & -4.72	-27.65
CC(C)NC(=O)CC(C)NCc1ccc(F)cc1Cl (configuration not stated)	14.58	-2.981
O=C(O)C(F)(F)F.[H][C@@]12CCN(Cc3ccco3)CC[C@]1([H])[C@H](COCC1CC1)CN(C)C2=O	0.9186 & -1.107	15.32
Cl.NC1(c2nc(C(F)(F)F)cc(=O)[nH]2)CCCCC1	25.11 & 4.156	-0.1048
COC(=O)C1CCCCN1Cc1cccc(C(=O)NCc2ccco2)c1 (configuration not stated)	-4.319	-4.166
CC(=O)N(Cc1ncc(C(C)C)o1)C1CCN(Cc2ccno2)C1 (configuration not stated)	-11.52	-11.07
O=C(Nc1nnc(C(F)F)s1)N[C@H](CCO)c1ccccc1	19.01	23.42
CCN(CC)Cc1cnc2n1CCN(C1CCOC1)CC2 (configuration not stated)	24.61 & 2.464	4.588
Cc1nc(C)n(CC2CCCN(CC(=O)Nc3cccnc3)C2)n1 (configuration not stated)	28.72	15.74
Cc1noc(C)c1CN1CCn2c(COC(C)C)nnc2C1	1.486	-8.458
[H][C@@]12CS(=O)(=O)C[C@]1([H])N(Cc1ncc[nH]1)CCN2Cc1ccccc1CC	0.1569	-8.908
CCn1cc(C(=O)n2nc(C)cc2C)c(S(=O)(=O)N2CCCCC2)n1	11.51	17.03
Cc1nn2c(-c3snnc3C)nnc2s1	-38.72 & -11.38	-36.94
CN(CCC#N)C(=O)Cn1nnnc1C(C)(C)C	-12.47	-13.01
Cn1cc(CN2CCC3(CC2)CCN(C(=O)c2cscn2)C3)cn1.O=C(O)C(F)(F)F	-4.278	14.1
c1ccc2c(c1)CC(CNCc1ccncc1)(N1CCCCC1)C2	20.23	-7.223
O[C@H]1[C@H](n2cc(-c3cccnc3)nn2)c2ccccc2C12CCNCC2	-13.4 & 0.6287	3.318
[H][C@]12CCC(=O)N[C@@]1(C)CCCCN2C(=O)c1cn2c(C)cccc2n1	-0.3391	-13.04
O=C(Cc1cccs1)N1CCn2cc(Cn3cccn3)nc2C1.O=C(O)C(F)(F)F	-8.73	-11.34 & 22.62
CSC(C)(C)CNC(=O)NC1CCN(C)CC1	3.256	27.7
Cc1cc(C(=O)N[C@H]2COC[C@@H]2N2CCOCC2)c2ccc(F)cc2n1	19.06	17.01
Cc1nn(C)cc1C(=O)N1CCCn2nc(CN3CC[C@H](F)C3)cc2C1	7.479 & -5.762	4.835
Cc1cc(C)c2nc(C)cc(C(=O)NCc3csc(N(C)C)n3)c2c1	-68.55	-36.31
Cc1nn(C)c2cn(C(C)C(=O)NCc3ccc(F)cc3)nc12 (configuration not stated)	35.55	16.01
CN(C)C(=O)CN1CCC2(CCCN(Cc3cccnc3)C2)C1=O.O=C(O)C(F)(F)F.O=C(O)C(F)(F)F (configuration not stated)	2.493	-18.6 & -5.988
COc1ccc(-c2ccc(C(=O)NCCCC(N)=O)c(F)c2)c(F)c1	32.78	28
CC(NC1CCSCC1)c1ccccc1-n1cccn1 (configuration not stated)	17.25	24.47
Cl.c1cnc2[nH]c(C3CCCNC3)c(CN3CCCOCC3)c2c1 (configuration not stated)	-6.62	-10.43
CC(=O)NCCc1ccc(S(=O)(=O)N(C)C(C)CC(C)C)s1 (configuration not stated)	6.102	-5.109
Cc1nc(C)c(S(=O)(=O)NC(=O)c2sccc2C)s1	4.659	4.943
Cc1nnsc1C(=O)NCc1cccnc1N1CCc2ccccc2C1	2.622	-8.219 & -6.39
Cc1ccccc1N1CCN(C(=O)CSc2ccncc2)CC1=O	-7.488	-14.92
CC(C)c1nc2n(n1)CC(NCCc1cccs1)CC2 (configuration not stated)	-19.69 & 3.069	2.351 & -8.503
CC(C)(C)Oc1ccccc1CNC(=O)C1CCCOC1 (configuration not stated)	-29.55	0.6163
Cc1ccccc1-n1c(C)cc(C(=O)N2CCn3c(C)nnc3C2)c1C	24.35	-7.211
O=C1CCC2(CCCN(c3ncc(F)cn3)CC2)N1CC1CC1 (configuration not stated)	21.85	10.1
COc1ncccc1C1CC(=O)NCc2nc3sccn3c21 (configuration not stated)	-10.51 & 4.454	7.772
Cc1csc(CNC(=O)N(C)Cc2ccncc2)n1	-6.549	8.562
CC(C)C1CN(S(=O)(=O)Cc2cccc(C#N)c2)CCS1 (configuration not stated)	18.33 & 14	4.399
O=C(CC1CC1)N1CCn2cc(Cn3cccn3)nc2C1.O=C(O)C(F)(F)F	-38.57	-11.8 & -5.889
O=C(NC[C@]1(O)CCN(Cc2ccccc2F)C[C@H]1O)c1c[nH]cn1	-16.99	-12.81 & -13.95
CNS(=O)(=O)c1ccc(CNC(=O)Nc2ccccn2)s1	-6.755 & 6.031	-10.58
CC(C)CS(=O)(=O)CC(=O)N(C)Cc1ccc(OC(F)F)cc1	-11.62	3.24
CCS(=O)(=O)CC(=O)N1CCCC1c1noc(C2CC2)n1 (configuration not stated)	-32.64	-19.35
Cc1nc(-c2ccccc2F)sc1C(=O)N1CCC(=O)CC1	-25.08	-8.425
CN1C(=O)C2(CCN(C(=O)c3ccccc3)CC2)c2cccc(F)c21.Cl	19.59 & 6.478	24.51
CN(C)c1ccc(C2CCN(c3cnccn3)CC2)nc1	-1.146	13.64 & -0.6201
Cc1cc(C(C)(O)CNC(=O)CCOCC(C)C)c(C)o1 (configuration not stated)	14.8 & 4.178	6.605
Cc1nc(C)n(C2CCCN(C(=O)Cc3cn4ccccc4n3)C2)n1 (configuration not stated)	22.97	0.5545
CCNc1ccnc(NCc2cn3nc(C)sc3n2)n1	-23.27	-14.49
O=C(Nc1cccnc1N1CCSCC1)c1ccc2c(c1)CCO2	-20.18	-12.94
CCN(CC)CC(=O)N1CCN(CCc2ccncc2)CC1	-2.731 & -5.829	-5.946
O=C(c1cc2ccccc2s1)N1CCC(C(=O)O)(n2cccn2)CC1	15.55	-3.482
CNC(=O)c1cc(NC(=O)NC2CC2)ccc1F	11.7	14.77
CN(C(=O)c1ccc(C2CCCO2)s1)C1CCS(=O)(=O)CC1 (configuration not stated)	-19.88 & -3.504	2.236
CCNc1ncc(C(=O)NC(c2ccccc2)c2ccco2)cn1 (configuration not stated)	-13.23	-1.684
O=C(c1cccnc1OCC(F)(F)F)N1CCCn2ncnc21	2.097 & -5.045	-20.77
COCc1nc(CNC2CCN(C(C)C)CC2)no1	14.56	-1.822
Cn1cncc1-c1nnc([C@H]2CCN(Cc3ccc(CO)o3)C2)o1	-14.27 & -29.17	-19.23
CCCc1cnc(C)nc1N1CCC(Cn2cc(C(C)O)nn2)CC1 (configuration not stated)	-0.4206	40.69
Cc1nn(C(C)C)c(C)c1NC(=O)c1cccnc1	0.8349	2.628 & -3.782
OC1CCN(C2CCN(c3ccc(Cn4ccnc4)cn3)CC2)CC1	-30.27	1.882
O=C(CN1CCc2sccc2C1)Nc1ccnc2ccnn12	9.244	8.119
CC(CN1CCCC1=O)NC(=O)NCc1ccccc1-n1cccn1 (configuration not stated)	-16.27 & 2.596	-5.3
NC(c1ccc(F)cc1)c1cccs1 (configuration not stated)	-19.06	-24.37
COc1nn(C)cc1C(=O)NCC(=O)NCc1ccccn1	-0.4634 & 2.114	8.483
Nc1nccc(C2CCN(CCO)C2)n1 (configuration not stated)	-0.861	1.863
CCn1cc(Br)c(C(=O)NCc2cnn(C)c2)n1	-2.025	-17.61
CCN(C(C)=O)c1nc(CN2CCN(c3nccs3)CC2)cs1	-0.6994	-12.42
CO[C@@H]1CN(c2ccccc2)S(=O)(=O)[C@@]12CCN(C)C2	20.61	10.32
COCC1CN(CC2CC2)Cc2nn(C)cc21.O=C(O)C(F)(F)F (configuration not stated)	-33.55	-24.98

The last 4 entries again:

| structure | A | B |
|---|---|---|
| `CCn1cc(Br)c(C(=O)NCc2cnn(C)c2)n1` | -2.025 | -17.61 |
| `CCN(C(C)=O)c1nc(CN2CCN(c3nccs3)CC2)cs1` | -0.6994 | -12.42 |
| `CO[C@@H]1CN(c2ccccc2)S(=O)(=O)[C@@]12CCN(C)C2` | 20.61 | 10.32 |
| `COCC1CN(CC2CC2)Cc2nn(C)cc21.O=C(O)C(F)(F)F` (configuration not stated) | -33.55 | -24.98 |

Measurements from “University of Dundee, Small-Polar-MMV Screening Library” (2021), ChEMBL document CHEMBL3988442.